According to the supplement of paper PMC12819154, “High-throughput peptide-centric local stability assay extends protein–ligand identification to membrane proteins, tissues and bacteria” (Nature Structural & Molecular Biology, 2025):
The list shows a part of the results. Most values lie at the level of the controls, where differences are scatter.

The chains behind the UniProt entries cited, without tags or fusion partners. Where a name states a change or a piece, a line headed by the entry shows the natural chain unless it says otherwise.
UniProt Q96PZ0: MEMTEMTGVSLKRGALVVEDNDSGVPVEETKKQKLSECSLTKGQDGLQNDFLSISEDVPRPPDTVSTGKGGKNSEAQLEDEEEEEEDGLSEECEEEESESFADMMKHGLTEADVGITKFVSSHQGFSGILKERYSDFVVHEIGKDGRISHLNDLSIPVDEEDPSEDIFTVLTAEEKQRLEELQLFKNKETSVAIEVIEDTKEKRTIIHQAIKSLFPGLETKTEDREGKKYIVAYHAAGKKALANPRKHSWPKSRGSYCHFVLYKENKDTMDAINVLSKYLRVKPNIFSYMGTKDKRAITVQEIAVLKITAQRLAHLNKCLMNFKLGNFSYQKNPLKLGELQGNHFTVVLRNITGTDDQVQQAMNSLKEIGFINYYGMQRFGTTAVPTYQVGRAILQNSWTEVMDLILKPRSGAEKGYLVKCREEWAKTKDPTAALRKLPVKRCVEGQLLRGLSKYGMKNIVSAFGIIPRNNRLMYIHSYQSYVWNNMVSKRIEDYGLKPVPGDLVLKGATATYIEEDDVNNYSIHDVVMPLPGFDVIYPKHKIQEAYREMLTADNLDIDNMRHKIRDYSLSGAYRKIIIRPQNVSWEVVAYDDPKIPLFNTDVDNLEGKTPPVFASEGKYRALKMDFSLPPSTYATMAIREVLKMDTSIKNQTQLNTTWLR
UniProt Q96LD4: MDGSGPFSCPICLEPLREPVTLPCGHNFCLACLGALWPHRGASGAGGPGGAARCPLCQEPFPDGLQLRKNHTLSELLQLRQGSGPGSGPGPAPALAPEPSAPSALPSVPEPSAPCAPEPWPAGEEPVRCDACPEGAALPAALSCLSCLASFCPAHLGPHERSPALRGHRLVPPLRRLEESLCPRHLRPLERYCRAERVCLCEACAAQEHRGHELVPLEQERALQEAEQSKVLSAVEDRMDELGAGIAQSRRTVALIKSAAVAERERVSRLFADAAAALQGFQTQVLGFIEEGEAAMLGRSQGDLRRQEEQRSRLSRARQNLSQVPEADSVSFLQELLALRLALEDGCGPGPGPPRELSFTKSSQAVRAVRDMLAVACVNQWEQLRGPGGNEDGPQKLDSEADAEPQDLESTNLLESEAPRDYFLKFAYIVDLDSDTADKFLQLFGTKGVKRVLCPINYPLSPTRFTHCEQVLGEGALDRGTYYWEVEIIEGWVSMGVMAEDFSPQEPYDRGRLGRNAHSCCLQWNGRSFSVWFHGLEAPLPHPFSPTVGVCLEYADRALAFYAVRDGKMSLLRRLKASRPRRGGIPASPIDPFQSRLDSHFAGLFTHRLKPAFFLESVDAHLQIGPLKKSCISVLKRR
UniProt Q96MW7: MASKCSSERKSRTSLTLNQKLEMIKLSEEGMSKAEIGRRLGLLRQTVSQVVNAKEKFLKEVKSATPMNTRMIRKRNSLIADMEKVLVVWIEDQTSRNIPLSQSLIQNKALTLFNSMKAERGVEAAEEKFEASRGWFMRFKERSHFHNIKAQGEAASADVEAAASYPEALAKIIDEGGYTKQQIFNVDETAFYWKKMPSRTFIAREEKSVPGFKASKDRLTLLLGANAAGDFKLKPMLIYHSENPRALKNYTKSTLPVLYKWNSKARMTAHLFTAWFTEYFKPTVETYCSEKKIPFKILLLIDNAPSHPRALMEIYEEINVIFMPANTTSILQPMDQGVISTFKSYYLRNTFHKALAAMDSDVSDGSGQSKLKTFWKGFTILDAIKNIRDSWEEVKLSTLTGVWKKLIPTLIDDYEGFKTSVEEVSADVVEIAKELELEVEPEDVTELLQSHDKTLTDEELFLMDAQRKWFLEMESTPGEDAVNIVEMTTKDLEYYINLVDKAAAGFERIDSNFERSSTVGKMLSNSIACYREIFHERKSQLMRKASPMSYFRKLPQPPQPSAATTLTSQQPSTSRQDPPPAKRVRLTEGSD
UniProt Q96K31: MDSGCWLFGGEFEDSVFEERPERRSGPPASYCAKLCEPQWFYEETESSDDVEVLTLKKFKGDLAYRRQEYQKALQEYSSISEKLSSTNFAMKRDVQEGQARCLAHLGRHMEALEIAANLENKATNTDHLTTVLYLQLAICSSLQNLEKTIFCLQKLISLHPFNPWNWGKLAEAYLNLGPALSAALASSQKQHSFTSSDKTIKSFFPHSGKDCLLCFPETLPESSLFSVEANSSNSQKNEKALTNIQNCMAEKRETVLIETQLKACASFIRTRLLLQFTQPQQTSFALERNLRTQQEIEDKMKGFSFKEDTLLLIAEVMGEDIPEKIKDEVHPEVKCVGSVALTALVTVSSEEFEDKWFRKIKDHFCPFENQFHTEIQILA
UniProt Q96NM4: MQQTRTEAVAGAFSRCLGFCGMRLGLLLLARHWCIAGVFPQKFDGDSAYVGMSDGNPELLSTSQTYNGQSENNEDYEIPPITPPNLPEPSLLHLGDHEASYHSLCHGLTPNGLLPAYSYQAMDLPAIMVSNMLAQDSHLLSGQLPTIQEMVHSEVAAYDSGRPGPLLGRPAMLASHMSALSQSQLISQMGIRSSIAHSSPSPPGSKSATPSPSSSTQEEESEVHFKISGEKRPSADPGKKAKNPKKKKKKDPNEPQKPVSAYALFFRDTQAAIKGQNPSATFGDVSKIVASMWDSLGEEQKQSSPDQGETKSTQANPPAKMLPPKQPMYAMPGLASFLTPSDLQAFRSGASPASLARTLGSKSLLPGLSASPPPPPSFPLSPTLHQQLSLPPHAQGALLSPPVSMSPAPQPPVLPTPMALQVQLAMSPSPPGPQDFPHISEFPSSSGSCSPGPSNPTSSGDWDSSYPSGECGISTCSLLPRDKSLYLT
UniProt Q96PZ2, whole entry: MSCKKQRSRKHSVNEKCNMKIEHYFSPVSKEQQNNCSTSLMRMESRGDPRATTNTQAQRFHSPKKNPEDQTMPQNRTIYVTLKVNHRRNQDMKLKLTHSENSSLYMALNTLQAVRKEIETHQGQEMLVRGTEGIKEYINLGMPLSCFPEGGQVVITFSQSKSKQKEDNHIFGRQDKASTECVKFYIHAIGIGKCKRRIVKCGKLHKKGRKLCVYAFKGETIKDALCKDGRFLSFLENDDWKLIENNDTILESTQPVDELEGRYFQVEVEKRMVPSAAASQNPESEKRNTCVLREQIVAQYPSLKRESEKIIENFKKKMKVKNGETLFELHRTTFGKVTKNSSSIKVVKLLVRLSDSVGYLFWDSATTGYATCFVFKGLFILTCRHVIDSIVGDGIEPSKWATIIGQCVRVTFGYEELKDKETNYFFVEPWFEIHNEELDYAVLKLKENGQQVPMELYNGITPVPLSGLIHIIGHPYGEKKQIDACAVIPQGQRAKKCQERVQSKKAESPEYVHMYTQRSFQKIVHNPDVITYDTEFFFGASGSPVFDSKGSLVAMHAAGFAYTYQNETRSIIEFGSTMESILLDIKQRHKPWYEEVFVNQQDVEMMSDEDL
UniProt Q96HC4: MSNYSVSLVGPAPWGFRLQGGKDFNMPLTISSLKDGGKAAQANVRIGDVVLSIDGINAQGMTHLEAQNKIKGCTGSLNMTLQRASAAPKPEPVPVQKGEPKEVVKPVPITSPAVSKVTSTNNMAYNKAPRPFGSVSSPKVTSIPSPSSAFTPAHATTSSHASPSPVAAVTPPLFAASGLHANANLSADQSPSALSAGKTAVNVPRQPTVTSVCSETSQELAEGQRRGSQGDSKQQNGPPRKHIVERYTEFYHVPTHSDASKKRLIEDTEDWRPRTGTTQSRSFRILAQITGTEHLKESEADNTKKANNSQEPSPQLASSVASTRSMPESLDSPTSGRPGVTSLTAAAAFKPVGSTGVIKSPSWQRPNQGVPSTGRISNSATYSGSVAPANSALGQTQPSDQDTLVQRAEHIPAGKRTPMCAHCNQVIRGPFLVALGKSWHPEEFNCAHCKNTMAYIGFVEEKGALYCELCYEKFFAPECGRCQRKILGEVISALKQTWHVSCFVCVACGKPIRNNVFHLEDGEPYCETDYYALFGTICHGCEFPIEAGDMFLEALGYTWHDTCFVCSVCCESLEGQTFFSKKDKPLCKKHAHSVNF
UniProt Q96GX9: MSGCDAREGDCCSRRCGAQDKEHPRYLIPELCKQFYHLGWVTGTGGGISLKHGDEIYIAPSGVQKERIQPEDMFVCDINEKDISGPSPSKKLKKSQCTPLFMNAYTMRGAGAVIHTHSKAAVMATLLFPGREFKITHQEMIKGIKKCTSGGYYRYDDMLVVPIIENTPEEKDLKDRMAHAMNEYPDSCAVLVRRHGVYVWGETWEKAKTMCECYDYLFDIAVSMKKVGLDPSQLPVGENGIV
UniProt Q96IQ9: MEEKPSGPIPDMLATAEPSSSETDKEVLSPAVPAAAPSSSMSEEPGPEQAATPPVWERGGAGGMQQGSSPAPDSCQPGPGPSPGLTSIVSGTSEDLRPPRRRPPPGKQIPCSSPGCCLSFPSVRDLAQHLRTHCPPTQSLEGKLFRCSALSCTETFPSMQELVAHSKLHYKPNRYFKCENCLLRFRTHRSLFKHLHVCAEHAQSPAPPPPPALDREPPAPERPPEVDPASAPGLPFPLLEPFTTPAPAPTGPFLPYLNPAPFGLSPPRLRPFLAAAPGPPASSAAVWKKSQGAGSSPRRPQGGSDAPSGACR
UniProt Q96RT8, whole entry: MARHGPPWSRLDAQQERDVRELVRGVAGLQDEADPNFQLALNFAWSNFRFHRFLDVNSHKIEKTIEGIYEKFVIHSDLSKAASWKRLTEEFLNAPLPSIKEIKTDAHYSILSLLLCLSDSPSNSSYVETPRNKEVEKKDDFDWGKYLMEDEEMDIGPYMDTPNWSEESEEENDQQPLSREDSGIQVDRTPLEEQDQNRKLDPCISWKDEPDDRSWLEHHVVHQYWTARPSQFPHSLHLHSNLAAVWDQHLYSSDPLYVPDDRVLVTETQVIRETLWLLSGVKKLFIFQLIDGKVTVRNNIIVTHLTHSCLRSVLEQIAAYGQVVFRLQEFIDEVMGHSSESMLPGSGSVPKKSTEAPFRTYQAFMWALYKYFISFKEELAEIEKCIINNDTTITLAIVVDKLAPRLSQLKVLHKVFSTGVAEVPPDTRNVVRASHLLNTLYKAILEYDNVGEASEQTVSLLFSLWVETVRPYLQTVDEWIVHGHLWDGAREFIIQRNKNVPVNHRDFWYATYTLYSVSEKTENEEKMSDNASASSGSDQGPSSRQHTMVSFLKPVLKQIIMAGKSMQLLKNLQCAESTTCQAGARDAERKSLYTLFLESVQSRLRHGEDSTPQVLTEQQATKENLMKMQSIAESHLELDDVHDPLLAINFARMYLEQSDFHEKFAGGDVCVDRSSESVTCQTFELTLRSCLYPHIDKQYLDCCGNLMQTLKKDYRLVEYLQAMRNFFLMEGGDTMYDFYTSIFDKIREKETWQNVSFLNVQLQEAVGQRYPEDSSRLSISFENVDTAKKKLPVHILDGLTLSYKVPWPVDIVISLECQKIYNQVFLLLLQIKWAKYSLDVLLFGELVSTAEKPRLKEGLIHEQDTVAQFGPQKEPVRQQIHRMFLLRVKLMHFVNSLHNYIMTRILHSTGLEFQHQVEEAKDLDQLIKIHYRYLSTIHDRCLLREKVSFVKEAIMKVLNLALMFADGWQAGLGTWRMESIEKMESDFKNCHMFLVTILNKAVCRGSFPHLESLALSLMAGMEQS
UniProt Q96NB3: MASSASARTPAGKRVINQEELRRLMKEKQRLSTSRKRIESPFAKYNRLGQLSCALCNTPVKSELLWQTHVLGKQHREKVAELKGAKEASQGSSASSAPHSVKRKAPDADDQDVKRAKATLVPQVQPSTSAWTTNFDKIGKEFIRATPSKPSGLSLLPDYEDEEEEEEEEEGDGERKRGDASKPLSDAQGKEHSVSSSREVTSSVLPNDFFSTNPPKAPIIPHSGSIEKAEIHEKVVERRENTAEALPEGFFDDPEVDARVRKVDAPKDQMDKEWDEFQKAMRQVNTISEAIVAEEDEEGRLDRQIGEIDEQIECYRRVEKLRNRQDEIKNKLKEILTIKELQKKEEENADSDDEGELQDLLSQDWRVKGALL
UniProt Q96IX9: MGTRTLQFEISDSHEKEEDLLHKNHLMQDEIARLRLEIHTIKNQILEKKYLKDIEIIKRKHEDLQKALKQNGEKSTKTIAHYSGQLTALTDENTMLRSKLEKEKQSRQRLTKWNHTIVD
UniProt Q96SL8: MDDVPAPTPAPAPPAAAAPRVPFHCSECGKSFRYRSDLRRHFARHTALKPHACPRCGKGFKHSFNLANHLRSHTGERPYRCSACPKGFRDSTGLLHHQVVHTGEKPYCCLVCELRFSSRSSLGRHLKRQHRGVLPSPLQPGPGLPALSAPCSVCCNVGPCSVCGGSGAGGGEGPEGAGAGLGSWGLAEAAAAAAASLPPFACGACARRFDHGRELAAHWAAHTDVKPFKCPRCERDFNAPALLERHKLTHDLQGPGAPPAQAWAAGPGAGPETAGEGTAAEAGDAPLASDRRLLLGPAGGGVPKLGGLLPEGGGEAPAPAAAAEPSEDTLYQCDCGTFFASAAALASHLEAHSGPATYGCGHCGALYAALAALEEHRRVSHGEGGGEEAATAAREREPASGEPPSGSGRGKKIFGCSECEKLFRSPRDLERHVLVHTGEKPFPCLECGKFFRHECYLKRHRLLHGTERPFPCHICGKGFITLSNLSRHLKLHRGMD

Each target was assayed with CN[C@@H]1C[C@H]2O[C@@](C)([C@@H]1OC)n1c3ccccc3c3c4c(c5c6ccccc6n2c5c31)C(=O)NC4 [staurosporine] (assay: log2 fold change of tryptic peptide abundance, ligand vs vehicle (limited proteolysis) (log2 ratio); higher = more trypsin-susceptible (destabilized)). Details: ligand concentration: 20 uM; sample: K562 cleared lysate; digestion: 4 min, 22 C (HT-PELSA RT4min, Orbitrap Astral).

Target	log2 fold change
UniProt Q96QE5 (peptide sequence: SINIVEHR, peptide start residue: 96)	-0.188
UniProt Q96SQ5 (peptide sequence: LRVSQEPFVFR, peptide start residue: 163)	-0.754
UBL7 (peptide sequence: LKDDQTLDFYGIQPGSTVHVLRK, peptide start residue: 70) (UniProt Q96S82)	0.72
REEP6 (peptide sequence: VEHFLEQR, peptide start residue: 8) (UniProt Q96HR9)	0.283
THOC3 (peptide sequence: VHSVAWSCDGRR, peptide start residue: 58) (UniProt Q96J01)	-0.28
CEP63 (peptide sequence: MEISHLTQELHQR, peptide start residue: 415) (UniProt Q96MT8)	-0.194
PUS7 (peptide sequence: GYLVKCREEWAK, peptide start residue: 416) (UniProt Q96PZ0)	-0.629
TRIM47 (peptide sequence: NHTLSELLQLR, peptide start residue: 70) (UniProt Q96LD4)	-0.388
VPS35 (peptide sequence: QIVLTGILEQVVNCR, peptide start residue: 240) (UniProt Q96QK1)	0.226
MYO19 (peptide sequence: AVMLIQAAIR, peptide start residue: 786) (UniProt Q96H55)	0.466
UniProt Q96MW7 (peptide sequence: ILLLIDNAPSHPR, peptide start residue: 297)	-0.363
UniProt Q96PC5 (peptide sequence: VHAEQVLNDKESHIK, peptide start residue: 859)	-0.245
C8orf76 (peptide sequence: SGPPASYCAK, peptide start residue: 25) (UniProt Q96K31)	0.0204
SMG1 (peptide sequence: VNNVTSPEFTSVQHGSR, peptide start residue: 110) (UniProt Q96Q15)	0.303
UniProt Q96NM4 (peptide sequence: DPNEPQKPVSAYALFFR, peptide start residue: 219)	0.103
FAM111A (peptide sequence: KAESPEYVHMYTQR, peptide start residue: 505) (UniProt Q96PZ2)	0.563
RBM14 (peptide sequence: TQPMTAQAASYR, peptide start residue: 263) (UniProt Q96PK6)	0.0788
UniProt Q96MS0 (peptide sequence: GLVPGLLYR, peptide start residue: 834)	0.0985
MAGEB10 (peptide sequence: VIILVHYLLYK, peptide start residue: 115) (UniProt Q96LZ2)	0.259

Copied from above for reference:
Target	log2 fold change
UniProt Q96PC5 (peptide sequence: VHAEQVLNDKESHIK, peptide start residue: 859)	-0.245
C8orf76 (peptide sequence: SGPPASYCAK, peptide start residue: 25) (UniProt Q96K31)	0.0204

Next results follow.

Target	log2 fold change
PDLIM5 (peptide sequence: GPFLVALGK, peptide start residue: 429) (UniProt Q96HC4)	0.139
NSMCE2 (peptide sequence: KAYCPQIGCSHTDIR, peptide start residue: 207) (UniProt Q96MF7)	0.608
RNF2 (peptide sequence: SKGESNQMNLDTASEK, peptide start residue: 274) (UniProt Q99496)	0.198
APIP (peptide sequence: HGDEIYIAPSGVQK, peptide start residue: 52) (UniProt Q96GX9)	0.145
UniProt Q96MD2 (peptide sequence: VYHSLTYLGQK, peptide start residue: 67)	0.18
UniProt Q96H40 (peptide sequence: SSHLTTHK, peptide start residue: 273)	0.146
POM121 (peptide sequence: VVPAYVPTPIHPIFGGATHSAFGLK, peptide start residue: 1017) (UniProt Q96HA1)	-0.232
ZNF414 (peptide sequence: RPQGGSDAPSGACR, peptide start residue: 299) (UniProt Q96IQ9)	-0.4
UniProt Q96LW9 (peptide sequence: SSVLIEHQR, peptide start residue: 251)	0.255
TUBGCP5 (peptide sequence: LSISFENVDTAK, peptide start residue: 777) (UniProt Q96RT8)	-0.438
ZNF830 (peptide sequence: VINQEELR, peptide start residue: 15) (UniProt Q96NB3)	-0.155
CCDC43 (peptide sequence: MVSEEEKQR, peptide start residue: 119) (UniProt Q96MW1)	0.172
UniProt Q96IX9 (peptide sequence: KHEDLQK, peptide start residue: 1410)	0.125
FIZ1 (peptide sequence: DFNAPALLER, peptide start residue: 236) (UniProt Q96SL8)	0.646
ANKRD27 (peptide sequence: NADQAVPLHLACQQGHFQVVK, peptide start residue: 774) (UniProt Q96NW4)	-0.267
MUS81 (peptide sequence: RPLPACPNPLFVR, peptide start residue: 11) (UniProt Q96NY9)	0.566
PRRC1 (peptide sequence: GQDEASAGGIWGFIK, peptide start residue: 204) (UniProt Q96M27)	-0.109
EP400 (peptide sequence: ITAQQITTPGAQQK, peptide start residue: 2995) (UniProt Q96L91)	-0.385
